This series in a line: Circular dichroism spectra. The class given is physicochemical. The following applies: 25 μM acetylated peptide, 1x PBS pH 7.5, 20 °C. A general note: Circular dichroism is widely used to follow secondary structure.

For “Ac-LLRPTAASQSRALGPGAPGGSSRSSLRSRWGRFLLQRGSWTGPRCWPRGFQS-NH2 (N-terminus and C-terminus assumed) [L5UR]”, the “antiparallel β-sheet content” value is ~ 25% and the secondary structure entry is “mostly random coil”.

The record behind these values is publication PMC11233548 (Communications Biology, 2024).
